The values below come from the supplement of paper PMC4962491.

In this experiment the test system is FaDu. The experiment in a line: mitochondrial oxygen consumption rate normalised to cell number, Z score over the library; higher = higher oxygen consumption (negative = OCR reduction). As to conditions: treatment time 24 h, assay medium: 5 mM galactose, 5 mM pyruvate, 4 mM glutamine. On the procedure:
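Primary screen: FaDu cells were incubated 24 h with Pharmakon 1600 / TDI oncology set compounds at 2 or 10 uM. Mitochondrial-specific OCR (basal minus 2 uM antimycin A) was measured on a Seahorse XF96 in assay medium with 5 mM galactose, 5 mM pyruvate and 4 mM glutamine, then corrected for Hoechst cell number and expressed as a Z score […]. Compounds that cut cell number by >66% were excluded. Two repeats.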

Counter-ions that a name gives are not always drawn. ± gives the standard deviation of the averaged measurements. The list shows a part of the results, in another mix than the full data. Repeats in this data set agree poorly, so a single value says little.

As for `N=C(N)N`, the “mitochondrial oxygen consumption rate normalised” value (2 µM) is -0.124 ± 0.71. For the compound `C[C@]12C=CC(=O)C=C1CC[C@@H]1[C@@H]2[C@@H](O)C[C@@]2(C)[C@H]1CC[C@]2(O)C(=O)COP(=O)(O)O`, the “mitochondrial oxygen consumption rate normalised” value (2 µM) is 0.452 ± 0.56. On the same count and under the same terms, the figure for `C[C@]12CC[C@H]3C(=CCc4cc(O)ccc43)[C@@H]1CCC2=O` is 1.05 ± 0.14; for `Cc1ncc([N+](=O)[O-])n1CC(O)CCl` (stereo not drawn) it is 0.288 ± 0.052; for `CN1C(C(=O)Nc2ccccn2)=C(O)c2sccc2S1(=O)=O` it is 0.79 ± 0.53. Same read-out and setting: as for `N#Cc1ccc2[nH]cc(CCCCN3CCN(c4ccc5oc(C(N)=O)cc5c4)CC3)c2c1`, the figure is 0.929 ± 0.07; as for `CN(C)c1ccc2nc3ccc(=[N+](C)C)cc-3sc2c1`, -1.45 ± 0.23. On the same count and under the same terms, as for `COc1ccc(C2C(=O)c3ccccc3C2=O)cc1`, the figure is -0.43 ± 0.68.

Regarding `Cc1cccc(C)c1NC(=O)C1CCCCN1C` (stereo not drawn), where the note is “2 µM”, the “mitochondrial oxygen consumption rate normalised” value was -0.424 ± 0.013. Still for that read-out and setting: the figure for `COc1cc2c(cc1OC)C(=O)C(CC1CCN(Cc3ccccc3)CC1)C2` (stereo not drawn) is 0.235 ± 0.13; for `CCCCC(CC)CN1CN(CC(CC)CCCC)CC(C)(N)C1` (stereo not drawn) it is 0.457 ± 1; for `CO[C@@]1(NC(=O)Cc2cccs2)C(=O)N2C(C(=O)O)=C(COC(N)=O)CS[C@@H]21` it is 0.262 ± 0.49. On to `CC(=O)c1ccc2c(c1)N(CCCN1CCC(CCO)CC1)c1ccccc1S2`, for which the “mitochondrial oxygen consumption rate normalised” value (2 µM) stood at 0.864 ± 0.22.

Consider `CNCC[C@H](Oc1cccc2ccccc12)c1cccs1`, for which, for the setting “2 µM”, the “mitochondrial oxygen consumption rate normalised” value came to 0.289 ± 0.45. With `O=C(CCCN1CCC(O)(c2ccc(Br)cc2)CC1)c1ccc(F)cc1`, the “mitochondrial oxygen consumption rate normalised” value (2 µM) is -0.707 ± 1.1. Still for that read-out and setting: the figure for `COc1cc(Cc2cnc(N)nc2N)cc(OC)c1OC` is -0.0778 ± 0.14. On the same count and under the same terms, as for `CCN(CC)CCOC(=O)C(c1ccccc1)C1CCCCC1` (stereo not drawn), the figure is -1.31 ± 0.11; as for `COCC1=C(C(=O)OC(C)OC(=O)OC(C)C)N2C(=O)[C@@H](NC(=O)/C(=N\OC)c3csc(N)n3)[C@H]2SC1` (stereo partly drawn), -0.537 ± 0.33; as for `O=NN(CCCl)C(=O)NC1CCCCC1` [Lomustine;  CCNU], 0.41 ± 0.33. Same read-out and setting: as for `O=NN(CCCl)C(=O)NC1CCCCC1`, the figure is 0.962 ± 0.12.

Regarding `COc1ccccc1O`, the “mitochondrial oxygen consumption rate normalised” value (2 µM) came out at 0.278 ± 1.1.

On to `Cc1cccc(CN2CCN(C(c3ccccc3)c3ccc(Cl)cc3)CC2)c1` (stereo not drawn), for which the “mitochondrial oxygen consumption rate normalised” value (2 µM) is -0.819 ± 0.26. Still for that read-out and setting: as for `CCOc1ccc(S(=O)(=O)O)c2cccnc12`, the figure is -0.543 ± 0.32.

As for `O=C(O)CCC(=O)Nc1ccc(S(=O)(=O)Nc2nccs2)cc1`, under “2 µM”, the “mitochondrial oxygen consumption rate normalised” value is 1.11 ± 0.052.

In the case of `COc1cnc(NS(=O)(=O)c2ccc(N)cc2)nc1`, the “mitochondrial oxygen consumption rate normalised” value (2 µM) was found to be 0.123 ± 0.099. Same read-out and setting: the figure for `CC(=O)OCC1=C(C(=O)O)N2C(=O)[C@@H](NC(=O)CSc3ccncc3)[C@H]2SC1` is 0.892 ± 1. Same read-out and setting: the figure for `O=C1OC2(c3ccc(O)cc3Oc3cc(O)ccc32)c2ccccc21` is -0.0426 ± 0.24. Still for that read-out and setting: the figure for `CN(C)[C@@H]1C(O)=C(C(N)=O)C(=O)[C@@]2(O)C(O)=C3C(=O)c4c(O)ccc(Cl)c4[C@@](C)(O)[C@H]3C[C@@H]12` is 0.246 ± 0.017. In the case of `C[C@]12CC[C@@H]3c4ccc(O)cc4CC[C@H]3[C@@H]1CCC2=O`, where the note is “2 µM”, the “mitochondrial oxygen consumption rate normalised” value amounted to 0.365 ± 0.3. On the same count and under the same terms, as for H-RKDVY-OH, the figure is -0.0539 ± 1.4; as for `NC(=O)NC(=O)Cc1ccccc1`, 0.256 ± 0.33; as for `COc1ccc(C(=O)c2ccc(C)cc2)c(O)c1`, 0.0688 ± 1.7. For `CC1(C)[C@H]2CC[C@]1(CS(=O)(=O)O)C(=O)C2=Cc1ccc(C=C2C(=O)[C@@]3(CS(=O)(=O)O)CC[C@@H]2C3(C)C)cc1`, the “mitochondrial oxygen consumption rate normalised” value (2 µM) was -0.188 ± 0.35. The same measure, in the same setting: as for `CN1[C@@H](CC(=O)c2ccccc2)CCC[C@H]1C[C@H](O)c1ccccc1`, the figure is -0.343 ± 0.27; as for `c1ccc2[nH]c(-c3cscn3)nc2c1`, 0.179 ± 0.41; as for `COc1ccc(-c2cc(=O)c3c(O)cc(O[C@@H]4O[C@H](CO[C@@H]5O[C@@H](C)[C@H](O)[C@@H](O)[C@H]5O)[C@@H](O)[C@H](O)[C@H]4O)cc3o2)cc1O`, 0.666 ± 1.7.

Consider `CC(C)(C)NC[C@H](O)c1ccc(O)c(CO)c1`, for which the “mitochondrial oxygen consumption rate normalised” value is, setting by setting: (2 µM) -0.23 ± 0.86; (10 µM) 0.0168 ± 0.31. `CC(C)Nc1ncccn1`: where the note is “2 µM”, the “mitochondrial oxygen consumption rate normalised” value amounted to 0.473 ± 0.042. Same read-out and setting: the figure for `CCn1cc(C(=O)O)c(=O)c2cnc(N3CCCC3)nc21` is -1.08 ± 0.061; for `O=S(=O)(O)CCS` it is 0.243 ± 0.3. Same read-out and setting: the figure for `CCCCCCCCCCCCC[N+](C)(C)Cc1ccccc1` is -5.74 ± 0.24; for `CCCS(=O)(=O)Nc1ccc(F)c(C(=O)c2c[nH]c3ncc(-c4ccc(Cl)cc4)cc23)c1F` [Vemurafenib] it is 0.352 ± 0.067. Still for that read-out and setting: the figure for `CC(=O)[C@H]1CC[C@H]2[C@@H]3C[C@H](C)C4=CC(=O)CC[C@]4(C)[C@H]3[C@@H](O)C[C@]12C` is 0.256 ± 0.52; for `CCOC(=O)OC(C)OC1=C(C(=O)Nc2ccccn2)N(C)S(=O)(=O)c2ccccc21` (stereo not drawn) it is 0.0627 ± 0.2. As for `O=C(O)c1cc(-c2ccc(F)cc2F)ccc1O`, the “mitochondrial oxygen consumption rate normalised” value (2 µM) is -0.927 ± 0.6.

`CCCCNC(=O)NS(=O)(=O)c1ccc(C)cc1`: the “mitochondrial oxygen consumption rate normalised” value (2 µM) came out at 0.00357 ± 0.17.

Take `CCN1CC(CCN2CCOCC2)C(c2ccccc2)(c2ccccc2)C1=O` (stereo not drawn): the “mitochondrial oxygen consumption rate normalised” value (2 µM) is 0.301 ± 0.46. The same measure, in the same setting: the figure for `CC(=O)Nc1ccc(CC(=O)O)cc1` is 0.914 ± 0.6. The same measure, in the same setting: as for `C[C@@H](CN1CC(=O)NC(=O)C1)N1CC(=O)NC(=O)C1` [Dexrazoxane HCl], the figure is 1.32 ± 0.36; as for `CNCCC(Oc1ccc(C(F)(F)F)cc1)c1ccccc1` (stereo not drawn), 0.814 ± 1; as for `Cc1nc2n(c(=O)c1CCN1CCC(c3noc4cc(F)ccc34)CC1)CCCC2`, -0.684 ± 0.56. On the same count and under the same terms, the figure for `CC(=O)OCC(=O)[C@@]12N=C(C)O[C@@H]1C[C@H]1[C@@H]3CCC4=CC(=O)C=C[C@]4(C)[C@H]3[C@@H](O)C[C@@]12C` is -0.0872 ± 0.072.
